From patent US20230158034A1, “CO-TREATMENT WITH CDK4/6 AND CDK2 INHIBITORS TO SUPPRESS TUMOR ADAPTATION TO CDK2 INHIBITORS” (Pfizer Inc., priority 2020, published 2023)
These are yes or no findings as the source states them, for the method shown. Binding seen in cells or lysates may run through a third protein. Some entries that bind do so weakly or less than the wild type.

Protein sequences, listed by entry. Tags and fused reporters are not part of them. Residues count along the entry.
UniProt P11802, residues 2-303: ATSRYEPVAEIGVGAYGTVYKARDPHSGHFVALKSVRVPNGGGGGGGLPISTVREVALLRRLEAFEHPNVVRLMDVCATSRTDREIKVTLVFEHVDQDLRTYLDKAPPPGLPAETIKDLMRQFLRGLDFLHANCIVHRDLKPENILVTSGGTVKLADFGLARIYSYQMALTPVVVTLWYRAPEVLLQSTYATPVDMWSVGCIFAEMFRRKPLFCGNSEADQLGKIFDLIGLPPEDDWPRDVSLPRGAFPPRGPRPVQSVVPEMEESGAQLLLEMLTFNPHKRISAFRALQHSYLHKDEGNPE
UniProt Q00534: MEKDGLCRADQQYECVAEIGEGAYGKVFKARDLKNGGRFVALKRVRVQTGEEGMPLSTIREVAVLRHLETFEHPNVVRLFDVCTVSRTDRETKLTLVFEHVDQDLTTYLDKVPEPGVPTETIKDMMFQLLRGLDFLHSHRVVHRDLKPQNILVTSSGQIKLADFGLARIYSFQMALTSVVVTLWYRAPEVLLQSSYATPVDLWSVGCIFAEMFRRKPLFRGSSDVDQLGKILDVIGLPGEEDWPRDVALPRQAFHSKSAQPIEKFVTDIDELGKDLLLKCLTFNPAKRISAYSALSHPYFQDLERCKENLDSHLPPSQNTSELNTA
UniProt P30281: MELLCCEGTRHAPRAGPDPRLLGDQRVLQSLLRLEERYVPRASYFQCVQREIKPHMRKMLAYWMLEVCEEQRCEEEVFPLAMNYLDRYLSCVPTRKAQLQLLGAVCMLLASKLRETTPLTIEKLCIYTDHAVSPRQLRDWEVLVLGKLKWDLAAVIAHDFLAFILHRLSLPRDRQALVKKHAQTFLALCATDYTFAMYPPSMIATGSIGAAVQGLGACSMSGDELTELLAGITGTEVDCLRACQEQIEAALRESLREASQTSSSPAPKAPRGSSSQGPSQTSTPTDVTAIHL

Experiments:
CDK4 (human) [1] = target: CDK4 (human) (UniProt P11802); test: co-immunoprecipitation of CDK4 from MCF10A lysates (24 hr DMSO or 100 nM PF3600), western blot for Cyclin D3
CDK4 (human) [2] = target: CDK4 (human) (UniProt P11802); test: co-immunoprecipitation with anti-CDK4 antibody, western blot for Cyclin D3 (FIG. 11F)
CDK6 (human) [3] = target: CDK6 (human) (UniProt Q00534); test: co-immunoprecipitation with anti-CDK6 antibody, western blot for Cyclin D3 (FIG. 11F)
CDK6 (human) [4] = target: CDK6 (human) (UniProt Q00534); test: co-immunoprecipitation of CDK6 from MCF10A lysates (24 hr DMSO or 100 nM PF3600), western blot for Cyclin D3

Measured: binding

Cyclin D3 (from UniProt P30281 1-292)
binds: all assays above
